# Experimental data: the supplement of paper PMC8728848
# The list shows a part of the results.
# B1: Gs78B-bfa-542-29-542 (Bacteroides fragilis) (protein)
# chain: SEDINRNPLLPTKEDEKMDGVIYGAYLPNLEKSVIPIGTASESTEPVNRYQIGVNLAGDAWAGYMSPRDNKFNGSKNFTNYFMYENWVNYVYSFMVTDVYSPWMQIKRISQDEGTRNDEIYALAQIIKIAALHRTTDMFGPIPYSQVGKGSFKVAYDSQESVYRSFLKELEEAVQTLDDYSNKSKEVLPAFDIVYNGDVNKWMRFANSLMLRLAIRVRFADAGLAKEYAEKAVKHPAGLINSKELAAQMGKGAGLQMKNPLKVINEEYNDTRMGATIYSYLAGYNDARAAVYFVKNNGFKAVRCGIAKSGDAYNGFTRPNVHEDDPLYWMKASEVCFLKAEGALAGFDMGGSAGDFYNAGIRMSFSENGLDNSSAETYLKDSTRKPANYTDTSNGELSANAPSSITIRWENGATEEEKLERIITQKYLAIFPNGQEAWTEWRRTGYPRQIVVAENKTNSAVLIGNGYDLGGVRRLPYPRTEYEQNGENLHNAISQYLGGVDNAATKVWWDKKSK
# Key:
# Assay in all cases: glycan array binding signal (z-score within array); higher = stronger binding
# Settings in all cases: glycan notation: IUPAC condensed, linker removed
# [1] = target: Fuc(a1-2)Gal6S(b1-3)GlcNAc6S
# How it was run: (§1)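 The binding signal is a Z-score computed within each array and averaged over linkers. Arrays of the same protein sequence at different concentrations or buffers were also averaged together. Data originate from 3228 arrays in the Consortium for Functional Glycomics database, kept only where the protein sequence was available.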
# [2] = target: Fuc(a1-2)Gal6S(b1-4)Glc
# How it was run: as §1
# [3] = target: Fuc(a1-2)Gal6S(b1-4)Glc6S
# How it was run: as §1
# [4] = target: Fuc(a1-2)[Gal(a1-3)]Gal
# How it was run: as §1
# [5] = target: Fuc(a1-2)[Gal(a1-3)]Gal(b1-3)GalNAc
# How it was run: as §1
# [6] = target: Fuc(a1-2)[Gal(a1-3)]Gal(b1-3)GalNAc(b1-3)Gal(a1-4)Gal(b1-4)Glc
# How it was run: as §1
# [7] = target: Fuc(a1-2)[Gal(a1-3)]Gal(b1-3)GlcNAc
# How it was run: as §1
# [8] = target: Fuc(a1-2)[Gal(a1-3)]Gal(b1-3)GlcNAc(b1-2)Man(a1-3)[Fuc(a1-2)[Gal(a1-3)]Gal(b1-3)GlcNAc(b1-2)Man(a1-6)]Man(b1-4)GlcNAc(b1-4)GlcNAc
# How it was run: as §1
# [9] = target: Fuc(a1-2)[Gal(a1-3)]Gal(b1-3)GlcNAc(b1-2)Man(a1-3)[Fuc(a1-2)[Gal(a1-3)]Gal(b1-3)GlcNAc(b1-2)Man(a1-6)]Man(b1-4)GlcNAc(b1-4)[Fuc(a1-6)]GlcNAc
# How it was run: as §1
# [10] = target: Fuc(a1-2)[Gal(a1-3)]Gal(b1-3)GlcNAc(b1-3)GalNAc
# How it was run: as §1
# [11] = target: Fuc(a1-2)[Gal(a1-3)]Gal(b1-3)GlcNAc(b1-6)GalNAc
# How it was run: as §1
# [12] = target: Fuc(a1-2)[Gal(a1-3)]Gal(b1-4)Glc
# How it was run: as §1
# [13] = target: Fuc(a1-2)[Gal(a1-3)]Gal(b1-4)GlcNAc
# How it was run: as §1
# [14] = target: Fuc(a1-2)[Gal(a1-3)]Gal(b1-4)GlcNAc(b1-2)Man
# How it was run: as §1
# [15] = target: Fuc(a1-2)[Gal(a1-3)]Gal(b1-4)GlcNAc(b1-2)Man(a1-3)[Fuc(a1-2)[Gal(a1-3)]Gal(b1-4)GlcNAc(b1-2)Man(a1-6)]Man(b1-4)GlcNAc(b1-4)GlcNAc
# How it was run: as §1
# [16] = target: Fuc(a1-2)[Gal(a1-3)]Gal(b1-4)GlcNAc(b1-2)Man(a1-3)[Fuc(a1-2)[Gal(a1-3)]Gal(b1-4)GlcNAc(b1-2)Man(a1-6)]Man(b1-4)GlcNAc(b1-4)[Fuc(a1-6)]GlcNAc
# How it was run: as §1
# [17] = target: Fuc(a1-2)[Gal(a1-3)]Gal(b1-4)GlcNAc(b1-3)GalNAc
# How it was run: as §1
# [18] = target: Fuc(a1-2)[Gal(a1-3)]Gal(b1-4)GlcNAc(b1-3)[Fuc(a1-2)[Gal(a1-3)]Gal(b1-4)GlcNAc(b1-6)]GalNAc
# How it was run: as §1
# [19] = target: Fuc(a1-2)[Gal(a1-3)]Gal(b1-4)GlcNAc(b1-6)GalNAc
# How it was run: as §1
# [20] = target: Fuc(a1-2)[Gal(a1-3)]Gal(b1-4)[Fuc(a1-3)]Glc
# How it was run: as §1
# [21] = target: Fuc(a1-2)[Gal(a1-3)]Gal(b1-4)[Fuc(a1-3)]GlcNAc
# How it was run: as §1
# [22] = target: Fuc(a1-2)[Gal(a1-3)]Gal(b1-4)[Fuc(a1-3)]GlcNAc(b1-3)GalNAc
# How it was run: as §1
# [23] = target: Fuc(a1-2)[Gal(a1-4)]Gal(b1-4)GlcNAc
# How it was run: as §1
# [24] = target: Fuc(a1-2)[GalNAc(a1-3)]Gal
# How it was run: as §1
# [25] = target: Fuc(a1-2)[GalNAc(a1-3)]Gal(b1-3)GalNAc(a1-3)[Fuc(a1-2)]Gal(b1-4)GlcNAc
# How it was run: as §1
# [26] = target: Fuc(a1-2)[GalNAc(a1-3)]Gal(b1-3)GalNAc(b1-3)Gal(a1-4)Gal(b1-4)Glc
# How it was run: as §1
# [27] = target: Fuc(a1-2)[GalNAc(a1-3)]Gal(b1-3)GlcNAc
# How it was run: as §1
# [28] = target: Fuc(a1-2)[GalNAc(a1-3)]Gal(b1-3)GlcNAc(b1-2)Man(a1-3)[Fuc(a1-2)[GalNAc(a1-3)]Gal(b1-3)GlcNAc(b1-2)Man(a1-6)]Man(b1-4)GlcNAc(b1-4)GlcNAc
# How it was run: as §1
# [29] = target: Fuc(a1-2)[GalNAc(a1-3)]Gal(b1-3)GlcNAc(b1-2)Man(a1-3)[Fuc(a1-2)[GalNAc(a1-3)]Gal(b1-3)GlcNAc(b1-2)Man(a1-6)]Man(b1-4)GlcNAc(b1-4)[Fuc(a1-6)]GlcNAc
# How it was run: as §1
# [30] = target: Fuc(a1-2)[GalNAc(a1-3)]Gal(b1-3)GlcNAc(b1-3)GalNAc
# How it was run: as §1
# [31] = target: Fuc(a1-2)[GalNAc(a1-3)]Gal(b1-3)GlcNAc(b1-6)GalNAc
# How it was run: as §1
# [32] = target: Fuc(a1-2)[GalNAc(a1-3)]Gal(b1-4)Glc
# How it was run: as §1
# [33] = target: Fuc(a1-2)[GalNAc(a1-3)]Gal(b1-4)GlcNAc
# How it was run: as §1
# [34] = target: Fuc(a1-2)[GalNAc(a1-3)]Gal(b1-4)GlcNAc(b1-2)Man
# How it was run: as §1
# [35] = target: Fuc(a1-2)[GalNAc(a1-3)]Gal(b1-4)GlcNAc(b1-2)Man(a1-3)[Fuc(a1-2)[GalNAc(a1-3)]Gal(b1-4)GlcNAc(b1-2)Man(a1-6)]Man(b1-4)GlcNAc(b1-4)GlcNAc
# How it was run: as §1
# [36] = target: Fuc(a1-2)[GalNAc(a1-3)]Gal(b1-4)GlcNAc(b1-2)Man(a1-3)[Fuc(a1-2)[GalNAc(a1-3)]Gal(b1-4)GlcNAc(b1-2)Man(a1-6)]Man(b1-4)GlcNAc(b1-4)[Fuc(a1-6)]GlcNAc
# How it was run: as §1
# [37] = target: Fuc(a1-2)[GalNAc(a1-3)]Gal(b1-4)GlcNAc(b1-3)Gal(b1-4)GlcNAc
# How it was run: as §1
# [38] = target: Fuc(a1-2)[GalNAc(a1-3)]Gal(b1-4)GlcNAc(b1-3)Gal(b1-4)GlcNAc(b1-3)Gal(b1-4)GlcNAc
# How it was run: as §1
# [39] = target: Fuc(a1-2)[GalNAc(a1-3)]Gal(b1-4)GlcNAc(b1-3)GalNAc
# How it was run: as §1
# [40] = target: Fuc(a1-2)[GalNAc(a1-3)]Gal(b1-4)GlcNAc(b1-3)[Fuc(a1-2)[GalNAc(a1-3)]Gal(b1-4)GlcNAc(b1-6)]GalNAc
# How it was run: as §1
# [41] = target: Fuc(a1-2)[GalNAc(a1-3)]Gal(b1-4)GlcNAc(b1-6)GalNAc
# How it was run: as §1
# [42] = target: Fuc(a1-2)[GalNAc(a1-3)]Gal(b1-4)[Fuc(a1-3)]GlcNAc
# How it was run: as §1
# [43] = target: Fuc(a1-2)[GalNAc(a1-3)]Gal(b1-4)[Fuc(a1-3)]GlcNAc(b1-3)GalNAc
# How it was run: as §1
# [44] = target: Fuc(a1-2)[GalNAc(a1-4)]Gal(b1-4)GlcNAc
# How it was run: as §1
# [45] = target: Fuc(a1-2)[GalNAc(b1-3)]Gal
# How it was run: as §1
binder,measurement,setting,value
B1,glycan array binding signal (z-score),[1],-0.759
same,glycan array binding signal (z-score),[2],2.11
same,glycan array binding signal (z-score),[3],-0.77
same,glycan array binding signal (z-score),[4],-0.238
same,glycan array binding signal (z-score),[5],-0.668
same,glycan array binding signal (z-score),[6],-0.824
same,glycan array binding signal (z-score),[7],-0.842
same,glycan array binding signal (z-score),[8],0.252
same,glycan array binding signal (z-score),[9],-0.049
same,glycan array binding signal (z-score),[10],-0.767
same,glycan array binding signal (z-score),[11],2.8
same,glycan array binding signal (z-score),[12],-0.72
same,glycan array binding signal (z-score),[13],-0.832
same,glycan array binding signal (z-score),[14],0.376
same,glycan array binding signal (z-score),[15],1.22
same,glycan array binding signal (z-score),[16],1.74
same,glycan array binding signal (z-score),[17],0.185
same,glycan array binding signal (z-score),[18],1.65
same,glycan array binding signal (z-score),[19],-0.852
same,glycan array binding signal (z-score),[20],-0.824
same,glycan array binding signal (z-score),[21],-0.73
same,glycan array binding signal (z-score),[22],-0.216
same,glycan array binding signal (z-score),[23],1.44
same,glycan array binding signal (z-score),[24],-0.701
same,glycan array binding signal (z-score),[25],0.134
same,glycan array binding signal (z-score),[26],-0.827
same,glycan array binding signal (z-score),[27],-0.729
same,glycan array binding signal (z-score),[28],0.203
same,glycan array binding signal (z-score),[29],-0.055
same,glycan array binding signal (z-score),[30],0.382
same,glycan array binding signal (z-score),[31],1.11
same,glycan array binding signal (z-score),[32],-0.713
same,glycan array binding signal (z-score),[33],-0.665
same,glycan array binding signal (z-score),[34],-0.657
same,glycan array binding signal (z-score),[35],0.275
same,glycan array binding signal (z-score),[36],0.952
same,glycan array binding signal (z-score),[37],0.818
same,glycan array binding signal (z-score),[38],1.31
same,glycan array binding signal (z-score),[39],-0.769
same,glycan array binding signal (z-score),[40],2.02
same,glycan array binding signal (z-score),[41],-0.583
same,glycan array binding signal (z-score),[42],1.53
same,glycan array binding signal (z-score),[43],1.75
same,glycan array binding signal (z-score),[44],0.651
same,glycan array binding signal (z-score),[45],-0.587

# Part of the list above, reformatted:
binder	measurement	setting	value
B1	glycan array binding signal (z-score)	[13]	-0.832
same	glycan array binding signal (z-score)	[18]	1.65
